Data from the ROBIN nucleic acid binder screens, doi:10.1002/anie.202211358.

Targets, with sequences 5′ to 3′:
SAM-II: SAM-II riboswitch RNA pseudoknot, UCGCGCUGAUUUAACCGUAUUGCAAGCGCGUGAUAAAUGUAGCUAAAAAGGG. About 200 hits among about 21,000 compounds.
PreQ1: PreQ1 riboswitch RNA pseudoknot, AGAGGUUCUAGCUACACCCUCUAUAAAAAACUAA. From B. subtilis. About 170 hits among about 24,000 compounds.
TPP: TPP riboswitch RNA three-way junction, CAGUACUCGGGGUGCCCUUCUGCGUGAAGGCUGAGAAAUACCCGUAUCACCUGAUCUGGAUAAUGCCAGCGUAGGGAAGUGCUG. About 160 hits among about 24,000 compounds.

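Each compound is printed as two spots on a slide made to bind it covalently, so it has no test concentration; the read-out is fluorescence of the bound, labelled oligonucleotide. For the PreQ1, TPP and SAM-II riboswitches the laboratory earlier reported (doi:10.1038/s41467-019-09493-3) 1 µM RNA, 2 h, and a rule that included a mean Z-score above 3 (spot signal-to-noise against the whole library), a score well above that on a control array, and duplicate spots agreeing (coefficient of variation under 100). The data file gives only the calls; its cut-offs may differ, and compounds hitting several targets are kept. The calls come from the array alone, and fixing a compound to the slide can hide its binding.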 Key: hit = hit, no hit = tested without a hit. The compounds are a random part of those screened. A target missing from an entry has no call listed here.

For COc1ccc(CNc2ncc(C(=O)O)c(C)n2)cc1 the calls were SAM-II: no hit; PreQ1: no hit; TPP: no hit. For Cl/N=C1/C=CC=C/C1=N/Cl the calls were SAM-II: no hit; PreQ1: no hit; TPP: no hit. With COCc1cc(C)nc2sc(C(=O)Oc3ccccc3)c(N)c12 the screen gave SAM-II: no hit; PreQ1: no hit; TPP: no hit. Calls for CCOC(=O)c1c(C)oc2ncnc(Nc3ccc(F)cc3)c12 are SAM-II: no hit; PreQ1: no hit; TPP: no hit. Cc1ccc(NC(=O)c2nccnc2CO)c(Cl)c1 was scored SAM-II: no hit; PreQ1: no hit; TPP: no hit.

Calls for COc1cccc2c1C(=O)c1c(O)c3c(c(O)c1C2=O)C[C@@](O)(C(C)=O)C[C@H]3O[C@H]1C[C@H](N)[C@H](O)[C@H](C)O1 are SAM-II: no hit; PreQ1: no hit; TPP: no hit. With COc1ccc(C=NCC(O)c2ccccc2)cc1 (stereo not given) the screen gave SAM-II: no hit; PreQ1: no hit; TPP: no hit. Calls for Cc1cccc(CN2CCN(Cc3ccccc3CO)CC2)n1 are SAM-II: no hit; PreQ1: no hit; TPP: no hit. With Nc1nonc1-n1nnc(C(=O)N2CCCC2)c1-c1ccccc1 the screen gave SAM-II: no hit; PreQ1: no hit; TPP: no hit. For Cc1cc(S(=O)(=O)[C@H]2CS(=O)(=O)C[C@@H]2NCCc2c[nH]c3ccccc23)ccc1F the calls were PreQ1: no hit; TPP: no hit.

Calls for COc1cc2oc3cc(C)oc(=O)c3c2cc1OC are SAM-II: no hit; PreQ1: no hit; TPP: no hit. With CCOC(=O)N1CCC(Nc2c(N(CC)Cc3ccccc3)c(=O)c2=O)CC1 the screen gave PreQ1: no hit; TPP: no hit. With CSc1nc2c(c(Nc3ccccc3F)n1)CCC2 the screen gave PreQ1: no hit; TPP: no hit. With COc1ccc(NC(=O)c2nnn(Cc3ccccc3)c2N)cc1 the screen gave SAM-II: no hit; PreQ1: no hit; TPP: no hit. With Cn1c(NCCCO)nc2c1c(=O)n(Cc1ccccc1F)c(=O)n2C the screen gave SAM-II: no hit; PreQ1: no hit; TPP: no hit.

With CCOC(=O)c1cccc(Nc2nc(C)cc(C)n2)c1 the screen gave SAM-II: no hit; PreQ1: no hit; TPP: no hit. For Nc1nonc1C(=O)NCCNCc1cc(Cl)ccc1OCc1ccc(F)cc1 the calls were PreQ1: no hit; TPP: no hit. Calls for Cc1cc2c(c(=O)o1)C(c1ccncc1)C(C#N)=C(N)O2 (stereo not given) are SAM-II: no hit; PreQ1: no hit; TPP: no hit. Cc1cc(=O)n2c3ccccc3n(CC(O)CNc3ccc(C(C)C)cc3)c2c1C#N (stereo not given) was scored PreQ1: no hit; TPP: no hit. For CCc1nc(-c2cccc(C)c2)c(-c2ccnc(NC(=O)c3ccccc3)c2)s1 the calls were SAM-II: no hit; PreQ1: no hit; TPP: no hit.

Calls for COC1CC2\C=C(C)/C=C/C=C/C(=O)NC(c3ccccc3)C/C=C/CCC(O)CC(=O)C2=C1O (stereo not given) are SAM-II: no hit; PreQ1: no hit; TPP: no hit. For Cc1cc2nc(-c3ccc(C)c(N)c3)oc2cc1C the calls were SAM-II: no hit; PreQ1: no hit; TPP: no hit. COC1CCN(S(=O)(=O)N2C[C@H]3CNC[C@@]3(C(=O)O)C2)CC1 was scored SAM-II: no hit; PreQ1: no hit; TPP: no hit. For CCCc1n[nH]c2c1C(c1c[nH]nc1-c1ccc(F)cc1)C(C#N)=C(N)O2 (stereo not given) the calls were SAM-II: no hit; PreQ1: no hit; TPP: no hit. COc1nc2c(cc1CNC1CCSC1)C(=O)N(C1CCCC1)C2 (stereo not given) was scored SAM-II: no hit; PreQ1: no hit; TPP: no hit.